# Assay results as given in the supplement of paper PMC12595434, “Development of retinoid nuclear receptor pathway antagonists through targeting aldehyde dehydrogenase 1A3” (iScience, 2025).
# Chains of the proteins cited; added tags and fusions are not shown. Lines headed by an entry give the natural chain unless they say otherwise; changes in a name come on top.
# UniProt P07311: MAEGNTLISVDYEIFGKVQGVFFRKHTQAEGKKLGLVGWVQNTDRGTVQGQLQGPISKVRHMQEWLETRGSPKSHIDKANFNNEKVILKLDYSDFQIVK
# UniProt P15309: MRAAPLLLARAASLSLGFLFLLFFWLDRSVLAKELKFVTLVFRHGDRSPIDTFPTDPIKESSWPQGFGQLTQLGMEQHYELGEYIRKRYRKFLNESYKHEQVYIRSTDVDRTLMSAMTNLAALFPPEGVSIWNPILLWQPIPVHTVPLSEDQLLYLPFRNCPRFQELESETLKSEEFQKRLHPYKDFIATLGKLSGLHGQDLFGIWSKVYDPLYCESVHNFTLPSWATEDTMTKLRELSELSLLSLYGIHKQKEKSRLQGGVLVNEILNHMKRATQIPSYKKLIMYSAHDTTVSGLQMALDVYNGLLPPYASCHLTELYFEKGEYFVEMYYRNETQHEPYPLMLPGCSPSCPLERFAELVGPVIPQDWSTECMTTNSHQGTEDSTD
# UniProt P16435: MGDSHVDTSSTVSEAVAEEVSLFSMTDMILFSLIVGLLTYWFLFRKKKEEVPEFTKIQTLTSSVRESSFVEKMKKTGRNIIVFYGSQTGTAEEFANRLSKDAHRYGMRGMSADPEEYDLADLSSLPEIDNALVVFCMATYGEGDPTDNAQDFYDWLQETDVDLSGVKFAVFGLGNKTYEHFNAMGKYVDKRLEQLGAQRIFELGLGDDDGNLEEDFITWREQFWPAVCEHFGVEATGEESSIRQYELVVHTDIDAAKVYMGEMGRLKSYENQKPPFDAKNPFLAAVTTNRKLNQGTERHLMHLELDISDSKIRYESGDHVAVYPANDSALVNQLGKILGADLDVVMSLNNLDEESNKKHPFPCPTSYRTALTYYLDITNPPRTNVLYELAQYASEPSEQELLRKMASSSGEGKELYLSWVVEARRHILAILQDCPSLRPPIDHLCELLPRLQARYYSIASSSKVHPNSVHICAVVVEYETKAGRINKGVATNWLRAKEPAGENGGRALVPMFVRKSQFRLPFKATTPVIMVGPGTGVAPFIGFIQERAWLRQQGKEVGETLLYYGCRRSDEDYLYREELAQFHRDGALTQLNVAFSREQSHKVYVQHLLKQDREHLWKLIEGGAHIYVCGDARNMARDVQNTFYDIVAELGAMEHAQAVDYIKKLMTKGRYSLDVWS
# UniProt P13010: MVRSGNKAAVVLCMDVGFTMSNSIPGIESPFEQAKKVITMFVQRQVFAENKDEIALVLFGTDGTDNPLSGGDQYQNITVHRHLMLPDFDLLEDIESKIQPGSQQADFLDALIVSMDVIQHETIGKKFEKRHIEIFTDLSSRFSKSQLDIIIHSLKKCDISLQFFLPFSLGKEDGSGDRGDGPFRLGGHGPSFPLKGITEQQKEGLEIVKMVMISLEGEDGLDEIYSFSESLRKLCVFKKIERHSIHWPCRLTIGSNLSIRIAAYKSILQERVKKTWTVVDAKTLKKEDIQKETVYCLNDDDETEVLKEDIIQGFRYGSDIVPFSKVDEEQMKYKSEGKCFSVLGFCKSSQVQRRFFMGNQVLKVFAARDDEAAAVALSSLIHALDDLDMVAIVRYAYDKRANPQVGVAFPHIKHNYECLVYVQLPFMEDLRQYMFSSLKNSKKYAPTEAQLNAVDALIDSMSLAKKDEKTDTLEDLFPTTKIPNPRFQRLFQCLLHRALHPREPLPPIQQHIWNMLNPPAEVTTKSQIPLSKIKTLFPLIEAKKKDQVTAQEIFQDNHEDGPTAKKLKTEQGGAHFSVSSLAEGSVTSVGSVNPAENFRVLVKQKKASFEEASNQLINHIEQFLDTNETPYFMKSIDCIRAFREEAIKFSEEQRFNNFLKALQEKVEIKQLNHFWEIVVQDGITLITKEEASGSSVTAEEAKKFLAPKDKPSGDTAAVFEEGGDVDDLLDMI
# UniProt P19367: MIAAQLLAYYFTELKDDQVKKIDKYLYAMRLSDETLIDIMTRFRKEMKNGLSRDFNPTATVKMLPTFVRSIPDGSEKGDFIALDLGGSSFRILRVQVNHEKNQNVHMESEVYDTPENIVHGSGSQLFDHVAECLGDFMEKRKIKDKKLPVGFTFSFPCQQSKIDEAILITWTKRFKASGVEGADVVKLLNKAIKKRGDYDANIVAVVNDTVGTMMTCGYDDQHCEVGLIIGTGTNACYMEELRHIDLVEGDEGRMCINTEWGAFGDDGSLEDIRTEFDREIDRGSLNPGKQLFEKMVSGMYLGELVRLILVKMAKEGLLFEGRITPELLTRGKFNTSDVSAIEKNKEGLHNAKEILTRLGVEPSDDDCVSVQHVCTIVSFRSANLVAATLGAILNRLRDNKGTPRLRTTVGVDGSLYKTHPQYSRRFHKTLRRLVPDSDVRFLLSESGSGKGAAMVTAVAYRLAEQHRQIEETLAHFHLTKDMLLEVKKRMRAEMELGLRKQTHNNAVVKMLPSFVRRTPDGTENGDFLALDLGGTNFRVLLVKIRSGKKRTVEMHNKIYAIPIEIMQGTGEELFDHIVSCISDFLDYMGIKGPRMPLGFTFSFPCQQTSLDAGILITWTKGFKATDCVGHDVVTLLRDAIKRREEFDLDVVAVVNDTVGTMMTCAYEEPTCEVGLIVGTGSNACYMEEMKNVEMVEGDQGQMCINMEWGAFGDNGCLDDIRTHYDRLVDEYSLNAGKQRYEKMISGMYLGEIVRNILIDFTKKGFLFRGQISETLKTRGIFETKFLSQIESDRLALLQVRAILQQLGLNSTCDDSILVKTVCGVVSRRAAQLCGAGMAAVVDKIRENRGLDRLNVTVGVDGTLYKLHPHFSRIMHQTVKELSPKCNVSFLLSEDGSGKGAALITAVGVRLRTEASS
# UniProt P15529: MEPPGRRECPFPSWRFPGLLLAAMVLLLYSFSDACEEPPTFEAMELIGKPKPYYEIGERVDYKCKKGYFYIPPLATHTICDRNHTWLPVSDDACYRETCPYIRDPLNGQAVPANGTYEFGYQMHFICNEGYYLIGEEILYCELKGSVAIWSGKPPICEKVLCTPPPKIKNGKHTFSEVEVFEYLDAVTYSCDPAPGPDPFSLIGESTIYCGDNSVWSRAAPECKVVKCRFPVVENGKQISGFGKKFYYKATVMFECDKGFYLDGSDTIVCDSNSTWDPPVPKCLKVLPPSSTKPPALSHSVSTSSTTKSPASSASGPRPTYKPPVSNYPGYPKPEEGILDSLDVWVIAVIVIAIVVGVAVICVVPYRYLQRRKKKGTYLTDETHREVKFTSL
# UniProt P09429: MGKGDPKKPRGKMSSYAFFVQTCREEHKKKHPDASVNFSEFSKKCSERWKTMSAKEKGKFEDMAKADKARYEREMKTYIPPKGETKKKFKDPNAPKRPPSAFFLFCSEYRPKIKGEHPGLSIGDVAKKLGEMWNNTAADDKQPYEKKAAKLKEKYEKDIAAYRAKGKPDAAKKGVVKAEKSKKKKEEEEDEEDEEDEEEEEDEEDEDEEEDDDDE
# UniProt P12004, whole entry: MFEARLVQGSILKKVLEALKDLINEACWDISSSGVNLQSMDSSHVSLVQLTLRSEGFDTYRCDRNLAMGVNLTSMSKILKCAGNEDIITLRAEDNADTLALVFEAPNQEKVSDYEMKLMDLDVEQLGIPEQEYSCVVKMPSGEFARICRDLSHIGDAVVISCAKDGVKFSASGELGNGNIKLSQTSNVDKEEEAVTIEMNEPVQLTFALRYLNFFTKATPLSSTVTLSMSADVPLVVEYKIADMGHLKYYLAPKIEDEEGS
# UniProt P08559, whole entry: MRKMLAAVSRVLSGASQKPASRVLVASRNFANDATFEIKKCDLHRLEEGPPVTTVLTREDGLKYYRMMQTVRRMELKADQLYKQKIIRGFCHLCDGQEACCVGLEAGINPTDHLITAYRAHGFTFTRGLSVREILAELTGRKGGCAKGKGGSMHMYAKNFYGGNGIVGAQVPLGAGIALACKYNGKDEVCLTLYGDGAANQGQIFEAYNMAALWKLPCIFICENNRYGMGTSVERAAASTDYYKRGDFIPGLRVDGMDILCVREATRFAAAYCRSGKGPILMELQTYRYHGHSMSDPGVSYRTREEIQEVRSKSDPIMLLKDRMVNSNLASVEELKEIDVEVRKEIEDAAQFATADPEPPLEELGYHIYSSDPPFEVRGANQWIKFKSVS
# UniProt P10301: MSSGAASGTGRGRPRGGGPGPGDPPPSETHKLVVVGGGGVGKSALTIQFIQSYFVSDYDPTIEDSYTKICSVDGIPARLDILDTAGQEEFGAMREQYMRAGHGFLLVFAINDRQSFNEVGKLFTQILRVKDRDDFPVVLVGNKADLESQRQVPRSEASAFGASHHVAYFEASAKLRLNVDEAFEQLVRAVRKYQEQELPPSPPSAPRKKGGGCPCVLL
# UniProt P08238, whole entry: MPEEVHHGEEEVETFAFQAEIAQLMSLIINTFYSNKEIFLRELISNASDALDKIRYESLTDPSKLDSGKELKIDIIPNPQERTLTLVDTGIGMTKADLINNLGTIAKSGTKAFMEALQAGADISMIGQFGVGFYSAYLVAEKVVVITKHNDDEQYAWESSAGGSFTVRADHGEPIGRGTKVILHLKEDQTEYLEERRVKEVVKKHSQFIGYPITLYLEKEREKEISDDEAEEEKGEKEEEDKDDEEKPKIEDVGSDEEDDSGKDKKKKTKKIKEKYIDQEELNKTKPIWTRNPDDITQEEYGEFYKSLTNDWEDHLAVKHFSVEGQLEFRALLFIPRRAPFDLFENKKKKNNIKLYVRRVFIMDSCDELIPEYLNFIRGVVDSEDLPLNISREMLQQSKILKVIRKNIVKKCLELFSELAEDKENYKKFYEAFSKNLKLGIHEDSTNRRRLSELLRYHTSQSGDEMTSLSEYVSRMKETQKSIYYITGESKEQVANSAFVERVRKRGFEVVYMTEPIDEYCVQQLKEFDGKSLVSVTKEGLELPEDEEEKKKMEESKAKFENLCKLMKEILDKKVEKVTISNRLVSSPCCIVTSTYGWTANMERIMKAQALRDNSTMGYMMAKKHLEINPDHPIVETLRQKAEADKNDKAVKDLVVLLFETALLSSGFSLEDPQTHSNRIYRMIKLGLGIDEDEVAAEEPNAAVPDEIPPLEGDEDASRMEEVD
# UniProt P20042, whole entry: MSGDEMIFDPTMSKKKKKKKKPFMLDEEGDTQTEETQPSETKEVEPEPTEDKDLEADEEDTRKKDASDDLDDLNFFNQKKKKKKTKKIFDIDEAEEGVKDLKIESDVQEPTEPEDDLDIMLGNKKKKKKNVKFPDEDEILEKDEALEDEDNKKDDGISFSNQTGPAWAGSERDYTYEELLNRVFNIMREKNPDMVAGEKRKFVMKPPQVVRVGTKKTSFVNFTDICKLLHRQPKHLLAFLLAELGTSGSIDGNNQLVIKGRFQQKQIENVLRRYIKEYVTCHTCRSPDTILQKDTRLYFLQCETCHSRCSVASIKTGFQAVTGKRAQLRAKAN
# UniProt P18031: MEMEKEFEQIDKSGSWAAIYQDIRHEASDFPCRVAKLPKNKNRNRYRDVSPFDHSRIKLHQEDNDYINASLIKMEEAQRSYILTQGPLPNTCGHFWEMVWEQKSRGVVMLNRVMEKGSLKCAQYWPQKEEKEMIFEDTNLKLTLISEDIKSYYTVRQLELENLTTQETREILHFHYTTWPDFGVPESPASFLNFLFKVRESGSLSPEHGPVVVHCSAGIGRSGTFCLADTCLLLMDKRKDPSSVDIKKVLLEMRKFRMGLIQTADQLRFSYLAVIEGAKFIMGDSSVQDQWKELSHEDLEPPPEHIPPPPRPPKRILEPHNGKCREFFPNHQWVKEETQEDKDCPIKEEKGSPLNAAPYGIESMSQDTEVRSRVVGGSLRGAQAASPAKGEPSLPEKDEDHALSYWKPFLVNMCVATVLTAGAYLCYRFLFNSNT
# UniProt P17010: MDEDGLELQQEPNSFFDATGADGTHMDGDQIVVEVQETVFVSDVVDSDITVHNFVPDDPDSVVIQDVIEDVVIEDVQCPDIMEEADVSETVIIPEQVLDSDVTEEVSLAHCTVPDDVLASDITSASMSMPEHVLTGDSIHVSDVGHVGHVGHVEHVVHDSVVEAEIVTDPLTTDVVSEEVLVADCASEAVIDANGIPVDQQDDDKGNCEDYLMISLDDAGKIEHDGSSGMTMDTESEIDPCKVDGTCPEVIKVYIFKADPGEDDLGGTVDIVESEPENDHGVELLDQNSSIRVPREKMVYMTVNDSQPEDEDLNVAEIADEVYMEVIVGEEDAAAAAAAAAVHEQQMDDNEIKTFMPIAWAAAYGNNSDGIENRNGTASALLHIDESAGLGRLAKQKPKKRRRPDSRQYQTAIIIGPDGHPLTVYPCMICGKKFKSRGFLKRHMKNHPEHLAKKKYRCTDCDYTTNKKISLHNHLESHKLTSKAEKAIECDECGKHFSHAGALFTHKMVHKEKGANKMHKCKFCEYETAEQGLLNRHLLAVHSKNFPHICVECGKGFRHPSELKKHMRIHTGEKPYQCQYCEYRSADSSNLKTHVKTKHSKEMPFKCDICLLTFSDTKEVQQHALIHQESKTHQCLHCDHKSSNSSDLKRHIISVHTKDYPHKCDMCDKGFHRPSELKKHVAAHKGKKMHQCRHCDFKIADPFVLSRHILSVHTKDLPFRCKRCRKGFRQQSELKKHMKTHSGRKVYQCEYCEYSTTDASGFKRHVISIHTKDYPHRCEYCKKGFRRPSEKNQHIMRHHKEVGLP
# The list shows a part of the results. This is a noisy data set.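 Tm was set to 64 °C where no melting was found, and many curves are irregular.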
# Compound: CCc1cnccc1C(=O)Nc1cc2c(cc1F)NC(=O)CC2
# Assay: melting temperature shift (DMSO Tm minus MBE1-treated Tm) in cellular thermal proteome profiling; higher = less thermal stabilization by MBE1 (negative = stabilized by MBE1)
# Conditions: A375
Target,melting temperature shift (MBE1 concentration: 100 nM) [°C],melting temperature shift (MBE1 concentration: 1 uM) [°C]
ACYP1 (UniProt P07311),-0.429,-0.912
UniProt P15309,0.629,-2.13
UniProt P17544,0.00671,0.898
UniProt P13612,-3.2,1.34
POR (UniProt P16435),-0.536,-0.0183
P4HB (UniProt P07237),-1.67,-0.513
ITGA5 (UniProt P08648),-6.16,0.301
CAPN1 (UniProt P07384),-1.51,-0.36
UniProt P20036,-4.6,-3.3
TCP1 (UniProt P17987),-0.782,-0.0671
XRCC5 (UniProt P13010),-0.275,-0.147
GALT (UniProt P07902),-0.556,0.147
UniProt P0C1Z6,0.179,-1.58
DDX5 (UniProt P17844),-0.494,0.0847
UniProt P12109,-0.966,0.502
MRPL3 (UniProt P09001),-2.75,-2.47
PFKL (UniProt P17858),-2.5,-2.03
RPS17 (UniProt P08708),-0.281,0.25
HK1 (UniProt P19367),-0.282,0.0997
UniProt P14543,-0.449,-0.128
VIM (UniProt P08670),-0.218,-0.61
VCL (UniProt P18206),-1.36,-1.56
CD46 (UniProt P15529),-2.01,-2.07
HMGB1 (UniProt P09429),-0.862,0.00731

Target,melting temperature shift (MBE1 concentration: 100 nM) [°C],melting temperature shift (MBE1 concentration: 1 uM) [°C]
PCNA (UniProt P12004),-1.09,-0.235
TRIM21 (UniProt P19474),-0.825,0.055
UniProt P13747,-0.436,0.933
PRPS2 (UniProt P11908),-0.563,0.55
UniProt P13591,-3.48,-2.89
UniProt P0C7T5,0.0201,10.6
UniProt P16455,1.58,0.641
UniProt P16260,-2.09,2.21
ENG (UniProt P17813),-3.59,2.03
PDHA1 (UniProt P08559),1.8,1.07
PSMC3 (UniProt P17980),-0.657,0.412
ACP2 (UniProt P11117),-2.76,0.348
GNAO1 (UniProt P09471),-0.116,0.299
ADH5 (UniProt P11766),-0.374,-1.49
RRAS (UniProt P10301),-1.96,0.299
RPL7 (UniProt P18124),-0.0794,0.366
LAMC1 (UniProt P11047),-0.986,0.336
FGF2 (UniProt P09038),-0.232,-0.104
TXN (UniProt P10599),-3.71,-2.63
NQO1 (UniProt P15559),0.989,0.464
HSP90AB1 (UniProt P08238),-0.288,0.0604
UniProt P17405,1,0.61
EIF2S2 (UniProt P20042),-0.819,-0.00671
ERCC2 (UniProt P18074),-1.34,0.154

# As entered above.
# EIF2S2 (UniProt P20042) | melting temperature shift (MBE1 concentration: 100 nM) [°C]: -0.819
# ADH5 (UniProt P11766) | melting temperature shift (MBE1 concentration: 100 nM) [°C]: -0.374
# FGF2 (UniProt P09038) | melting temperature shift (MBE1 concentration: 100 nM) [°C]: -0.232
# NQO1 (UniProt P15559) | melting temperature shift (MBE1 concentration: 100 nM) [°C]: 0.989
# UniProt P16260 | melting temperature shift (MBE1 concentration: 100 nM) [°C]: -2.09

# Carrying on.

Target,melting temperature shift (MBE1 concentration: 100 nM) [°C],melting temperature shift (MBE1 concentration: 1 uM) [°C]
UniProt P11217,-0.651,0.409
HSPA5 (UniProt P11021),-1.89,-0.421
PC (UniProt P11498),0.971,0.531
PTPN1 (UniProt P18031),-0.414,-0.616
UniProt P13164,-2.17,0.569
PDHB (UniProt P11177),1.69,1.53
QDPR (UniProt P09417),-0.879,-0.666
IMPDH2 (UniProt P12268),-0.0604,0.303
ANXA3 (UniProt P12429),-0.288,-0.557
MYL6B (UniProt P14649),-3.2,1.45
DARS (UniProt P14868),-0.4,-0.24
UniProt P08582,-1.47,1.19
FURIN (UniProt P09958),-0.672,1.35
ASNS (UniProt P08243),-0.295,0.0672
ATP5J (UniProt P18859),4.61,1.22
UniProt P16885,-1.33,-2.1
CYC1 (UniProt P08574),-1.51,-1.42
UniProt P15531,-2.8,-0.325
IGF1R (UniProt P08069),-0.0916,-0.403
SNRPA (UniProt P09012),-0.287,-2.09
HNRNPC (UniProt P07910),0.354,-0.464
POLR2C (UniProt P19387),0.055,-0.183
UniProt P17010,0.179,-2.13
